Measured values published in US8389231B2, “Assays, method and compositions that exploit a mycobacterial iron acquistion pathway in cells” (The Trustees of Princeton University, priority 2005, dated 2013).
“Also recorded” adds a separate entry of the source.

Test system: macrophages (THP-1 cell line)
Assay: Fluorescent confocal microscopy of intracellular distribution in macrophages
Type: cell-based, human

Substance: gallium-mycobactin J [Ga-MJ]
- intracellular distribution within macrophages (2 μM, macrophage culture 1×10^5 cells/ml, 20-120 min incubation): preferential affinity for lipid-droplets; also recorded: preferentially localized in a single intracellular structure
- interaction of Ga-MJ-laden lipid droplets with phagosomes containing fluorescent E. coli (macrophages with fluorescence-labeled E. coli phagosomes, 2 μM Ga-MJ, two hrs): direct contacts with phagosomes
